Measurements as given in the supplement of paper PMC10849652.
Some of the results follow.

Sequences of proteins named here, by UniProt entry; tags and fusion partners are left off. A change or cut given only in a name is not applied to a line headed by its entry.
UniProt O14653: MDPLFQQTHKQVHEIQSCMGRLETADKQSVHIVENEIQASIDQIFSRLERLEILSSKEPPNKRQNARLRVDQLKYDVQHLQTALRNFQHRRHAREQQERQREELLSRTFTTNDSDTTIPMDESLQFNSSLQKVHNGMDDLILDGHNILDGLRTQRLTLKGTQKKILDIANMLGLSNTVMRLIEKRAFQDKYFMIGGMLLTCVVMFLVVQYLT
UniProt O94925: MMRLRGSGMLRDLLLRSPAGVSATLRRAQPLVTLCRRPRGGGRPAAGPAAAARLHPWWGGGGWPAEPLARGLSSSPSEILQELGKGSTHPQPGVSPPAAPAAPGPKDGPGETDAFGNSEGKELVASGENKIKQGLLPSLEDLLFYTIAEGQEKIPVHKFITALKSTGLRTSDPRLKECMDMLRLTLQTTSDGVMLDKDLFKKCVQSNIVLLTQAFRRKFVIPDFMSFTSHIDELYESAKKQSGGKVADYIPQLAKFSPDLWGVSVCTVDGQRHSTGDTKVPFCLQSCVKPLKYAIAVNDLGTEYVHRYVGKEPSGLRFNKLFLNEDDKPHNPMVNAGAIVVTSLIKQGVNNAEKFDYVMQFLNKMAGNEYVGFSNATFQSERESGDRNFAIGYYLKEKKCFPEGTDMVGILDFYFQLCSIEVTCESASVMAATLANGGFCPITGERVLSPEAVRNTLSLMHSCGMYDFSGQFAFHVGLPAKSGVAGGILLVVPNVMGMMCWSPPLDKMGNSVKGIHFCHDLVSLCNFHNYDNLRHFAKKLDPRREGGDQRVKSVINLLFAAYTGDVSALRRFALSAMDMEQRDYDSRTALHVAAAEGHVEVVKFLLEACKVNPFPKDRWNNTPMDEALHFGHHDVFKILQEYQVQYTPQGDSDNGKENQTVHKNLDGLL
UniProt Q9UBI6: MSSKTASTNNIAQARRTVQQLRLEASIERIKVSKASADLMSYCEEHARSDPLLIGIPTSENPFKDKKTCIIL
UniProt I6L899: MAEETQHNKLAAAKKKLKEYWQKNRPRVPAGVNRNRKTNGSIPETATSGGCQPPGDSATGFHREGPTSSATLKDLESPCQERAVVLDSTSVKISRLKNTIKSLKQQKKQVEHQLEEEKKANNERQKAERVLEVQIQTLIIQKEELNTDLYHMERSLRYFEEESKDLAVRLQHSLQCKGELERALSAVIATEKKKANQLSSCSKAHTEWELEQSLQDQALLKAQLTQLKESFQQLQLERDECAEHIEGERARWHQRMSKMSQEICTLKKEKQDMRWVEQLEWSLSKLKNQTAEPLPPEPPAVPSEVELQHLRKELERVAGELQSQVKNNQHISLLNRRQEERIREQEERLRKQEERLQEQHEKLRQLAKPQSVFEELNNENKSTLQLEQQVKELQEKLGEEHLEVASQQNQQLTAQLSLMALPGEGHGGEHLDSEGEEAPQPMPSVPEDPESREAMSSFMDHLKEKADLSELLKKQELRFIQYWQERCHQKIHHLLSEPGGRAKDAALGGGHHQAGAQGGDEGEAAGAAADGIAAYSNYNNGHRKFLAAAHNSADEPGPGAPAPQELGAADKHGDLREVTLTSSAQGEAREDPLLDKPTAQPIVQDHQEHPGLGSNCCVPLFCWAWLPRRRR
UniProt P43250, whole entry, looked up: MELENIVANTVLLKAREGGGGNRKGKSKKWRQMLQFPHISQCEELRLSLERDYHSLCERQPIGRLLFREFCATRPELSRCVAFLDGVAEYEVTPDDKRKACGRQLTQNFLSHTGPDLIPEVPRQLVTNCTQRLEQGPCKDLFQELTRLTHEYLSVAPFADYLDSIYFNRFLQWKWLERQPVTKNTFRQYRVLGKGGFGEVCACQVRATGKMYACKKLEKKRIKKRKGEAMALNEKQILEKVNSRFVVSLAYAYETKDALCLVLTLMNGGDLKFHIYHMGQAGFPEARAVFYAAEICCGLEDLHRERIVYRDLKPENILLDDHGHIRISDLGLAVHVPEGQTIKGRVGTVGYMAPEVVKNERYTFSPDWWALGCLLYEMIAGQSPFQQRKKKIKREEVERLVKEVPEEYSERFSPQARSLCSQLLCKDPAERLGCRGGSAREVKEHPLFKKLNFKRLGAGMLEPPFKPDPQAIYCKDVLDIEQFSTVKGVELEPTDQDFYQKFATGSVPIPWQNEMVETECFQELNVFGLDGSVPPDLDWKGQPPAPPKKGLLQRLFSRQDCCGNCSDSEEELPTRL
UniProt Q14687: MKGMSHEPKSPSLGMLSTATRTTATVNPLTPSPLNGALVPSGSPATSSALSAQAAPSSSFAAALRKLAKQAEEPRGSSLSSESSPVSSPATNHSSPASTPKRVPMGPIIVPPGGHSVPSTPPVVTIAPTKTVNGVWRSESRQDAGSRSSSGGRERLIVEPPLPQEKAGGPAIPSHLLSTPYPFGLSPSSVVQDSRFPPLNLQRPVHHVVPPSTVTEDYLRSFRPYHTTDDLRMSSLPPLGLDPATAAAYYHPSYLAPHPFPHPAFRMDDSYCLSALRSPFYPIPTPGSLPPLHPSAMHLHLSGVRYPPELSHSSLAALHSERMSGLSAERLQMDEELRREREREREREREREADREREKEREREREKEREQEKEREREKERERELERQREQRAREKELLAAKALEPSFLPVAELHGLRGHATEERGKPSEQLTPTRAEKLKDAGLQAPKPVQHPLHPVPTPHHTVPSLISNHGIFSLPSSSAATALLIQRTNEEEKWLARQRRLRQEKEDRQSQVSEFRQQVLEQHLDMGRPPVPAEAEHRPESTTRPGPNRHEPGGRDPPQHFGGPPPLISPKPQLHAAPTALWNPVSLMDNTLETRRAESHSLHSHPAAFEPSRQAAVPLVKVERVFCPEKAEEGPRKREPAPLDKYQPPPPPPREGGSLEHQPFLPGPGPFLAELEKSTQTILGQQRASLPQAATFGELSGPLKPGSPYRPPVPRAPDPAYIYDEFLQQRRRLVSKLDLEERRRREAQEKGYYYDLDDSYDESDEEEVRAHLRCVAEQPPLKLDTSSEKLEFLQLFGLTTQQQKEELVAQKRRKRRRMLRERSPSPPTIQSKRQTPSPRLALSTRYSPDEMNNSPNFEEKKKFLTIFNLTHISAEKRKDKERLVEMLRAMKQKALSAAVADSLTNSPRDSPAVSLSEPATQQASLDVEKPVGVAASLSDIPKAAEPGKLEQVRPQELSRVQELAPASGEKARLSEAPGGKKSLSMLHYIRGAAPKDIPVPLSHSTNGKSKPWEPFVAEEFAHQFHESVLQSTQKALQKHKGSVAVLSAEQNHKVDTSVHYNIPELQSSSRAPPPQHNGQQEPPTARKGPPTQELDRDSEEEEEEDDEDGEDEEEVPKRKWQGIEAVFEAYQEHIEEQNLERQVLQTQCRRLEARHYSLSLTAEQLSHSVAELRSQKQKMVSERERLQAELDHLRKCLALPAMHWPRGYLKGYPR
UniProt Q14161: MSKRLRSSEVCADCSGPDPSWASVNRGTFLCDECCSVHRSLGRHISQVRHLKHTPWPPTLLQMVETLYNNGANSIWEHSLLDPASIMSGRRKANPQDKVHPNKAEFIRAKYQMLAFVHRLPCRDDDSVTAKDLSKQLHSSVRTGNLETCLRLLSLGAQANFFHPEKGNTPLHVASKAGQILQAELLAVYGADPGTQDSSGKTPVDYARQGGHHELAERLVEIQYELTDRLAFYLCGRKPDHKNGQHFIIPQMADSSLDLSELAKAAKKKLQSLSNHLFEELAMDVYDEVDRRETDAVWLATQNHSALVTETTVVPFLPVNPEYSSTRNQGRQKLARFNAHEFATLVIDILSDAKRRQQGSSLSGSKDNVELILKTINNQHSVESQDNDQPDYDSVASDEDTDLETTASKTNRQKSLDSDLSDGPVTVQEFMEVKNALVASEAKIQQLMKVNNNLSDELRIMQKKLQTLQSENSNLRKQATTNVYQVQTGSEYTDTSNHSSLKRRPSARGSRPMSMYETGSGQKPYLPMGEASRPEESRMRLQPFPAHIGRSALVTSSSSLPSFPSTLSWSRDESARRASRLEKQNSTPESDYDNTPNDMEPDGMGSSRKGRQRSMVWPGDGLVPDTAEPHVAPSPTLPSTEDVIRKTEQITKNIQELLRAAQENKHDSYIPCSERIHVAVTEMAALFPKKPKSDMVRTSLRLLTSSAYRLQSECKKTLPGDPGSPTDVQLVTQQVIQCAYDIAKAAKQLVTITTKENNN
UniProt Q9NPR9: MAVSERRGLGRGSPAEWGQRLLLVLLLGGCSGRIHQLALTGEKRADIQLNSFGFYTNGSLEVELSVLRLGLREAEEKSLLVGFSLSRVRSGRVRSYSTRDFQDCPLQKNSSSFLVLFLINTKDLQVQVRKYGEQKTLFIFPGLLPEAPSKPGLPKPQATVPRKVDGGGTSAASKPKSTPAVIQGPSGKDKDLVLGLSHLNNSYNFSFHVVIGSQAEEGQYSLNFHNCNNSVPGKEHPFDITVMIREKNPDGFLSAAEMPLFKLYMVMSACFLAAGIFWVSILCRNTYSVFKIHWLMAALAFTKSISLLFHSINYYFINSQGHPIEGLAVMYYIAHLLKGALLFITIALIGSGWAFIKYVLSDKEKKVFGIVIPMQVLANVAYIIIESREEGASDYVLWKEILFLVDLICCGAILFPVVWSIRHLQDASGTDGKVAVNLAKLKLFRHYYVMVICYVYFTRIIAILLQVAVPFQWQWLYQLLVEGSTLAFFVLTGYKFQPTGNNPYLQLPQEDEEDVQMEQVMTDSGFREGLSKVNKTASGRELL
UniProt Q15743: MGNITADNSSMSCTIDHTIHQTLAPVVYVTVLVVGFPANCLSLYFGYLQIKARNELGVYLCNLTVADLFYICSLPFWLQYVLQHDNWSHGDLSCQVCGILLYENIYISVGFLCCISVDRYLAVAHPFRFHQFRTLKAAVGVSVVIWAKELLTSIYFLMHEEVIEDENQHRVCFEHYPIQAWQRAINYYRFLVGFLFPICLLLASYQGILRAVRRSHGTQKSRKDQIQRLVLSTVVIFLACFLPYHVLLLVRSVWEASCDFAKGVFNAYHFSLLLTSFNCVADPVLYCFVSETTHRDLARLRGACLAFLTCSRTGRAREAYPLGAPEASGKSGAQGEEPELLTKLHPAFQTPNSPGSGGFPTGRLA
UniProt O75487: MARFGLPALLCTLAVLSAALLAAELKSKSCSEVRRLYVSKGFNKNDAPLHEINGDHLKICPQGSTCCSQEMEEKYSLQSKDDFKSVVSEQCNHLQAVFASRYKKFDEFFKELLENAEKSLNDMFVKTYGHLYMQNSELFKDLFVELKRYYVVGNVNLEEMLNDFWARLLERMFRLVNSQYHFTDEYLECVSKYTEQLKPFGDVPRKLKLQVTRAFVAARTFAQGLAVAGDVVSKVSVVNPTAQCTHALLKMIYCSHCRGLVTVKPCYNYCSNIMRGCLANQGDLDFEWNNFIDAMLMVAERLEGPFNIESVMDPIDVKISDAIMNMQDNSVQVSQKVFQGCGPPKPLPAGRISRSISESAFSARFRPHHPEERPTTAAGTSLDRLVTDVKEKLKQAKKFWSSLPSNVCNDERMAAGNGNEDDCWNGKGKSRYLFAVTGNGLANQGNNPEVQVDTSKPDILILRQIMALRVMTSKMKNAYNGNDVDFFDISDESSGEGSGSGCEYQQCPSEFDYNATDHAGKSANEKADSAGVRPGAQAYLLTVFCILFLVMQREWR
UniProt Q9Y4H4: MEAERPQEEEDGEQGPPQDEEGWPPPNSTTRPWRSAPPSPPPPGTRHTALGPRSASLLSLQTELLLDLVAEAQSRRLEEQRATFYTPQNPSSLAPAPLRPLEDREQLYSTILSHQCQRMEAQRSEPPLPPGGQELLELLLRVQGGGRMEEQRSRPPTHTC
UniProt Q8NBJ4: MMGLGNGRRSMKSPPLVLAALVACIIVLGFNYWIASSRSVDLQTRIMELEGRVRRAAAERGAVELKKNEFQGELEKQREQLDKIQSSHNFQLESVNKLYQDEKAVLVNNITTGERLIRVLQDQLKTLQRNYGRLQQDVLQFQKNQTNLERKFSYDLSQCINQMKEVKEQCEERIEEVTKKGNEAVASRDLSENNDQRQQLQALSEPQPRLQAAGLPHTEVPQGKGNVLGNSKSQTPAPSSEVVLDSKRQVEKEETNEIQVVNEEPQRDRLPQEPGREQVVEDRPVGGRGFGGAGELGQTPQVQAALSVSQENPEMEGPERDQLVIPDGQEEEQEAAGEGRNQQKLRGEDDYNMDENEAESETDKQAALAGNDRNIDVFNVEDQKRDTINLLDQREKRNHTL
UniProt Q9HCN6: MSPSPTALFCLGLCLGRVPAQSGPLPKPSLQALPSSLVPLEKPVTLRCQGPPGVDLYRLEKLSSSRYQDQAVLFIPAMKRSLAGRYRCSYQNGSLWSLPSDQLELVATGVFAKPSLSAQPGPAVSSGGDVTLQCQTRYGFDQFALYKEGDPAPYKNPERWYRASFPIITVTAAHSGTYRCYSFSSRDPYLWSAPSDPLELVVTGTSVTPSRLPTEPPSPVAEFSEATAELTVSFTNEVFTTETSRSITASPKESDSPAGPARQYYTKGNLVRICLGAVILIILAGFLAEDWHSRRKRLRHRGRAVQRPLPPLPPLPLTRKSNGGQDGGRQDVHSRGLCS

Columns and labels:
Experiment in all cases: log2 fold change, soluble protein after heating vs DMSO (PISA); higher = thermal stabilisation; K562 cells, 10 uM, 30 min; active = over 0.2 and 3.5 SD of the protein, either way, in both replicates (recomputed)
[1] = compound: CS(=O)(=O)c1ccc(-c2cnc(N)c(C(=O)Nc3ccccc3)n2)cc1
Summary of the method: (§1)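 K562 cells at 2×10^6 cells/mL were treated for 30 min with 10 μM compound, and aliquots were heated for 3 min over 48°C-58°C before pooling. Extraction used PBS with 0.5% NP-40 at 4°C, and soluble protein was the supernatant after 21,000xg for 90 min, measured by TMTpro 16plex LC-MS/MS with channel sums equalised. Thermal stability values, relative to control samples and from duplicates, are log2 fold changes.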

[2] = compound: C[C@@H](Oc1cc(-c2cnn(C3CCNCC3)c2)cnc1N)c1c(Cl)ccc(F)c1Cl [crizotinib]
Summary of the method: as §1

[3] = compound: C[C@H](C1=CC=C(C=C1)C(=O)NC2=C3C=CNC3=NC=C2)N
Summary of the method: as §1

[4] = compound: C[C@H](Nc1ncnc2nc[nH]c12)c1cc2cccc(Cl)c2c(=O)n1-c1ccccc1 [duvelisib]
Summary of the method: as §1

[5] = compound: Cc1cc(Nc2cc(CN3CCOCC3)c3nc(C)c(Cc4ccc(Cl)cc4F)n3n2)n[nH]1 [gandotinib]
Summary of the method: as §1

[6] = compound: Cc1cc(Nc2cc(N3CCN(C)CC3)nc(Sc3ccc(NC(=O)C4CC4)cc3)n2)n[nH]1 [tozasertib]
Summary of the method: as §1

[7] = compound: Cc1cc(SCc2sc(-c3ccc(C(F)(F)F)cc3)nc2C)ccc1OCC(=O)O
Summary of the method: as §1

[8] = compound: Cc1ccc(-n2nc(C(C)(C)C)cc2NC(=O)Nc2ccc(OCCN3CCOCC3)c3ccccc23)cc1 [doramapimod]
Summary of the method: as §1

[9] = compound: Cc1ccc(C(=O)N(CCCN)[C@@H](c2nc3cc(Cl)ccc3c(=O)n2Cc2ccccc2)C(C)C)cc1 [ispinesib]
Summary of the method: as §1

[10] = compound: Cc1ccc(NC(=O)c2ccc(CN3CC[C@H](N(C)C)C3)c(C(F)(F)F)c2)cc1Nc1nccc(-c2cncnc2)n1 [bafetinib]
Summary of the method: as §1

[11] = compound: Cc1cccc(CC(=O)N2CCc3c2ccc(-c2cn(C)c4ncnc(N)c24)c3F)n1
Summary of the method: as §1

[12] = compound: Cc1cn(-c2cc(NC(=O)c3ccc(C)c(Nc4nccc(-c5cccnc5)n4)c3)cc(C(F)(F)F)c2)cn1 [nilotinib]
Summary of the method: as §1

[13] = compound: Cc1nc(Nc2n[nH]c3c2CN(C(=O)N[C@H](CN(C)C)c2ccccc2)C3(C)C)c2sccc2n1
Summary of the method: as §1

[14] = compound: Cc1nc(Nc2ncc(C(=O)Nc3c(C)cccc3Cl)s2)cc(N2CCN(CCO)CC2)n1 [dasatinib]
Summary of the method: as §1

[15] = compound: Cc1ncc(-c2ccnc(Nc3ccc(S(C)(=O)=O)cc3)n2)n1C(C)C
Summary of the method: as §1

[16] = compound: Cn1cc(-c2ccc3c(c2)CCN3C(=O)Cc2cccc(C(F)(F)F)c2)c2c(N)ncnc21
Summary of the method: as §1

[17] = compound: Cn1cc(-c2ccc3nnc(C(F)(F)c4ccc5ncccc5c4)n3n2)cn1
Summary of the method: as §1

[18] = compound: Cn1cncc1[C@@](N)(c1ccc(Cl)cc1)c1ccc2c(c1)c(-c1cccc(Cl)c1)cc(=O)n2C [tipifarnib]
Summary of the method: as §1

[19] = compound: FC(F)(F)c1ccc(/C=C/c2nc(COc3ccc(CCCCn4ccnn4)cc3)co2)cc1 [mubritinib]
Summary of the method: as §1

[20] = compound: C[C@@H]1COCCN1C2=NC(=NC(=C2)C3(CC3)S(=O)(=O)C)C4=C5C=CNC5=CC=C4
Summary of the method: as §1

Measured: log2 fold change

GOSR2 isoform 2 (UniProt O14653)
inactive: [1] -0.052 | [2] -0.085 | [3] -0.124 | [4] 0.099 | [5] -0.075 | [6] -0.006 | [7] 0.025 | [8] -0.061 | [9] 0.024 | [10] -0.09 | [11] 0.087 | [12] -0.011 | [13] -0.06 | [14] -0.065 | [15] 0.032 | [16] 0.036 | [17] 0.053 | [18] -0.08 | [19] 0.099

GLS (UniProt O94925)
inactive: [1] 0.033 | [2] 0.05 | [20] 0.209 | [3] -0.049 | [5] -0.17 | [7] 0.054 | [8] -0.105 | [9] 0.118 | [10] -0.021 | [11] 0.025 | [12] -0.095 | [13] -0.069 | [14] -0.154 | [15] 0.009 | [16] -0.081 | [17] 0.003 | [18] -0.071 | [19] -0.285

GNG12 (UniProt Q9UBI6)
inactive: [5] 0.102 | [11] -0.257

GOLGA8R (UniProt I6L899)
inactive: [2] -0.009 | [3] -0.059 | [5] 0.324 | [7] -0.067 | [8] 0.108 | [9] -0.038 | [10] -0.095 | [11] -0.021 | [14] -0.074 | [16] 0.189 | [17] 0.126 | [18] 0.287

GRK6 isoform 2 (UniProt P43250)
inactive: [4] 0.04 | [7] 0.077 | [14] -0.107

GSE1 (UniProt Q14687)
inactive: [3] 0.008 | [7] -0.046 | [9] -0.066 | [10] 0.305 | [12] 0.034 | [13] 0.004 | [14] -0.453 | [15] -0.096 | [16] -0.009 | [17] 0.012

Four consecutive entries from above, quoted:
GOSR2 isoform 2 (UniProt O14653)
inactive: [1] -0.052 | [2] -0.085 | [3] -0.124 | [4] 0.099 | [5] -0.075 | [6] -0.006 | [7] 0.025 | [8] -0.061 | [9] 0.024 | [10] -0.09 | [11] 0.087 | [12] -0.011 | [13] -0.06 | [14] -0.065 | [15] 0.032 | [16] 0.036 | [17] 0.053 | [18] -0.08 | [19] 0.099

GLS (UniProt O94925)
inactive: [1] 0.033 | [2] 0.05 | [20] 0.209 | [3] -0.049 | [5] -0.17 | [7] 0.054 | [8] -0.105 | [9] 0.118 | [10] -0.021 | [11] 0.025 | [12] -0.095 | [13] -0.069 | [14] -0.154 | [15] 0.009 | [16] -0.081 | [17] 0.003 | [18] -0.071 | [19] -0.285

GNG12 (UniProt Q9UBI6)
inactive: [5] 0.102 | [11] -0.257

GOLGA8R (UniProt I6L899)
inactive: [2] -0.009 | [3] -0.059 | [5] 0.324 | [7] -0.067 | [8] 0.108 | [9] -0.038 | [10] -0.095 | [11] -0.021 | [14] -0.074 | [16] 0.189 | [17] 0.126 | [18] 0.287

Following part.

GIT2 (UniProt Q14161)
inactive: [2] 0.067 | [20] -0.29 | [3] 0.049 | [4] -0.195 | [7] 0.147 | [8] 0.241 | [10] -0.19 | [12] -0.247 | [13] -0.118 | [14] -0.151 | [15] 0.151 | [16] -0.087 | [18] -0.147 | [19] 0.06

GPR108 (UniProt Q9NPR9)
inactive: [1] 0.046 | [20] -0.035 | [3] -0.006 | [4] 0.033 | [6] 0.002 | [7] -0.071 | [9] -0.041 | [10] -0.018 | [12] 0.088 | [13] -0.025 | [14] 0.045 | [15] -0.027 | [16] 0.03 | [17] -0.003 | [18] 0.04 | [19] 0.03

GPR68 (UniProt Q15743)
inactive: [2] -0.017 | [8] -0.014 | [9] 0.187 | [17] 0.133

GPC4 (UniProt O75487)
inactive: [5] -0.258 | [11] -0.039

GPS1 (UniProt A8K070)
inactive: [2] -0.022 | [3] -0.033 | [5] -0.08 | [8] 0.117 | [9] 0.043 | [10] -0.13 | [11] -0.015 | [12] 0.05 | [13] 0 | [15] -0.113 | [16] 0.079 | [17] -0.104 | [19] 0.044

GPSM3 (UniProt Q9Y4H4)
inactive: [1] 0.161 | [3] -0.128 | [4] 0.256 | [7] 0.114 | [12] 0.131 | [13] -0.054 | [14] -0.206 | [15] -0.08 | [16] 0.075 | [18] -0.018 | [19] 0.093

GOLM1 (UniProt Q8NBJ4)
inactive: [1] -0.103 | [3] 0.124 | [6] -0.102 | [9] -0.084 | [10] -0.009 | [12] 0.117 | [13] 0.128 | [15] 0.043 | [16] 0.211 | [17] -0.119 | [18] -0.084 | [19] -0.093

GP6 isoform 3 (UniProt Q9HCN6)
inactive: [2] -0.342 | [3] 0.011 | [8] 0.109 | [10] 0.256 | [16] -0.09 | [19] 0.015

GOSR1 (UniProt E9PCW1)
inactive: [3] -0.017 | [4] -0.055 | [7] 0.019 | [10] -0.19 | [14] -0.017 | [16] 0.02 | [18] -0.204 | [19] -0.158
